# Hit rate of the full screen: of about 350,000 compounds, about 6,000 (1.7%) were called active. This list was built around the results that the source calls inconclusive (neither active nor inactive); the mix of calls is not that of the screen. No stated cut-off is given here; in the data, active means CPE inhibition above about 20% (passing the limit was not always enough); inconclusive means no clear call, values can overlap the other calls; tested in BHK-21 cells. More than one record can exist for a structure, and the calls need not agree.
# Experiment: protection of cells from dengue 2 killing – plate reader, single concentration, primary screen (AID 651640);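 further: 0% = median of neutral control wells and 100% = median of positive control wells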
# Conditions: DENV2-infected cells, cytopathic effect rescue, at 9.99 µM, active compounds read high
row,Compound,CPE inhibition
1,COc1ccc2c3c(n(C)c2c1)[C@@H](CO)N(S(C)(=O)=O)CC31CN(C(=O)c2ccccn2)C1,active: 34.1%
2,O=C(CCN1CCOCC1)c1ccccc1,inactive: 7%
3,CN1CCN(S(=O)(=O)c2ccc(Nc3ccc(F)cc3)c([N+](=O)[O-])c2)CC1,inconclusive: 32.3%
4,CCc1ccc2c(c1)NC(=O)C2(C)Cc1ccc(OC(F)(F)F)cc1 (stereo not drawn),active: 48.3%
5,CCOc1ccc(CC(=O)N/N=C(\C)c2cccnc2)cc1OCC,active: 78.4%
6,O=C(CSc1ccc2nnc(-c3ccncc3)n2n1)Nc1ccc2c(c1)OCO2,inactive: 12.7%
7,C[C@H](CO)N1C[C@H](C)[C@@H](CN(C)Cc2ccncc2)OCCCC[C@H](C)Oc2ccc(NC(=O)Nc3ccc4c(c3)OCO4)cc2C1=O,inactive: -5.49%
8,O=C(c1cccs1)N1CCN(c2nc3ccc([N+](=O)[O-])cc3s2)CC1,inactive: 11.1%
9,CCCN1[C@@H]2Cn3c(ccc(-c4ccc(F)cc4)c3=O)[C@H]1[C@@H](C(=O)NCC1CC1)[C@@H]2CO,inconclusive: 64.3%
10,CCOC(=O)C1=C(COC(=O)CNC(=O)c2ccc(C)cc2)NC(=O)NC1C (stereo not drawn),inconclusive: 29.9%
11,O=C(Nc1cc([N+](=O)[O-])ccc1O)c1ccc2c(c1)C(=O)N(Cc1ccco1)C2=O,active: 25.5%
12,CCc1nc2ccc(C(=O)Nc3cccc(OCC(=O)N(C)C)c3)cn2c1N(CCC(C)C)CCN(C)C,inconclusive: 35.6%
13,Cc1cccc(NC(=S)NC23CN4CN(CN(C4)C2)C3)c1C,inconclusive: 21.2%
14,C[C@H](CO)N1C[C@H](C)[C@@H](CN(C)Cc2cncnc2)Oc2ncc(-c3cccc(C#N)c3)cc2C1=O,inactive: -5.64%
15,CC[C@H](C)C(=O)O[C@H]1C[C@@H](C)C=C2C=C[C@H](C)[C@H](CC[C@@H]3C[C@@H](O)CC(=O)O3)[C@H]21,active: 35.6%
16,CN1CCN(/N=C/c2ccc(OCc3ccccc3)cc2)CC1,active: 23.5%
17,CC(C)COC(=O)N(C)C[C@H]1OCc2ccccc2-c2c(n(C)c3ccccc23)C(=O)N([C@@H](C)CO)C[C@@H]1C,inactive: 10.9%
18,Cc1nc([N+](=O)[O-])cn1CC(=O)Nc1ccc(Cl)cc1,inconclusive: 39.6%
19,COc1ccc2c3c(n(C)c2c1)[C@@H](CO)N(C(=O)C1CC1)CC31CCN(C(=O)CN(C)C)CC1,active: 22.8%
20,O=C1OC(N2C(=O)CC[C@H]2C(=O)NCC2CCCO2)c2ccccc21 (stereo partly drawn),active: 27.8%
21,COc1ccc(CCC(=O)Nc2ncc(C)s2)cc1OC,inconclusive: 25.2%
22,O=C1CN(S(=O)(=O)Cc2ccccc2)C[C@H]2[C@@H](c3ccc(C#Cc4ccccc4)cc3)[C@@H](CO)N12,inactive: 3.39%
23,CN(C(=O)COC(=O)Cc1ccc(Cl)cc1)C1CCCCC1,inconclusive: 25.8%
24,COc1ccc(C)cc1NC(=O)C1CCN(S(=O)(=O)c2cccc3cccnc23)CC1,active: 27.7%
25,CN1[C@@H]2c3ccc(/C=C/c4ccccc4)c(=O)n3C[C@@H]2[C@@H](CO)[C@@H]1C(=O)NCCN1CCCC1,inactive: -7.19%

# Already shown: an excerpt of the list.
row,Compound,CPE inhibition
17,CC(C)COC(=O)N(C)C[C@H]1OCc2ccccc2-c2c(n(C)c3ccccc23)C(=O)N([C@@H](C)CO)C[C@@H]1C,inactive: 10.9%
18,Cc1nc([N+](=O)[O-])cn1CC(=O)Nc1ccc(Cl)cc1,inconclusive: 39.6%
19,COc1ccc2c3c(n(C)c2c1)[C@@H](CO)N(C(=O)C1CC1)CC31CCN(C(=O)CN(C)C)CC1,active: 22.8%

# Later entries:

row,Compound,CPE inhibition
1,CCCC#Cc1ccc([C@@H]2[C@@H](CO)N3C(=O)CN(C(=O)NCCC)C[C@H]23)cc1,inconclusive: 24.1%
2,Cc1cc2c(c(=O)o1)[C@@]1(C(=O)N(C)c3cccc(Br)c31)C1=C(CCCC1=O)O2,inconclusive: 46%
3,CCN1CCN(c2nc(Nc3ccc(NC(C)=O)cc3)nc(Nc3ccc(NC(C)=O)cc3)n2)CC1,inactive: 4.97%
4,CCN(CC)CCOC(=O)c1ccc(N)cc1,inconclusive: 31.6%
5,COc1ccc(C(CNC(=O)C(C)Oc2ccc(Br)cc2)N2CCOCC2)cc1 (stereo not drawn),inconclusive: 23.3%
6,C/C=C/c1cnc2c(c1)C(=O)N([C@@H](C)CO)C[C@@H](C)[C@H](CN(C)C(=O)Nc1ccc(OC)cc1)O2,inactive: -3.44%
7,O=C(N/N=C\c1c(O)ccc2ccccc12)c1ccc(O)cc1,inactive: -9.43%
8,COc1ccc(OCC(=O)Nc2ccccc2Cl)cc1,inconclusive: 50.2%
9,COc1ccc(S(=O)(=O)N2CCC(C(N)=O)(N3CCCCC3)CC2)cc1OC,inactive: 3.5%
10,CNC[C@H]1Oc2c(NS(=O)(=O)c3ccc(Cl)cc3)cccc2C(=O)N([C@H](C)CO)C[C@@H]1C,inactive: 1.81%
11,COc1ccccc1N1CCN(/N=C/c2ccc(O)cc2O)CC1,inconclusive: 53.6%
12,CC1CN(C(=O)c2ccc(CNS(=O)(=O)c3cccc(Cl)c3)cc2)CC(C)O1 (stereo not drawn),inconclusive: 27.1%
13,CCC(=O)NC[C@H]1[C@@H](c2ccc(C3=CCCC3)cc2)[C@@H](CO)N1C(=O)C1CC1,inconclusive: 55.5%
14,O=C(NCC1CCCCC1)[C@@H]1[C@@H](CO)[C@@H]2Cn3c(ccc(-c4cccnc4)c3=O)[C@H]1N2,active: 106%
15,CN(CCc1ccccc1)C(=O)c1ccc(NC(=O)Cc2cccc(NC(=O)C3CCN(C(=O)C4CCCCC4)CC3)c2)cc1,inconclusive: 20.5%
16,CCCNC(=O)C[C@@H]1CC[C@@H]2[C@@H](COc3ccc(NC(=O)CC)cc3C(=O)N2C)O1,inconclusive: 23.5%
17,O=C(CC1(CC2=NS(=O)(=O)c3ccccc3N2)CCCC1)NCCc1ccccc1,inconclusive: 29.3%
18,COCC#Cc1ccc([C@@H]2[C@H](CO)N3C(=O)CN(C(=O)c4cccnc4)C[C@@H]23)cc1,inconclusive: 22.9%
19,COc1cc(/C=C2\C(=O)NN(c3ccccc3)C2=O)cc([N+](=O)[O-])c1O,inactive: 4.43%
20,CNC[C@@H]1OCCCC[C@H](C)Oc2ccc(NS(=O)(=O)c3cccs3)cc2C(=O)N([C@@H](C)CO)C[C@H]1C,inconclusive: 26.2%
21,O=C(COc1ccccc1)NCC(c1ccco1)N1CCN(c2ccccc2)CC1 (stereo not drawn),inconclusive: 20.7%
22,N#C[C@H]1[C@@H](c2ccccc2C2=CCCC2)[C@@H](CO)N1C(=O)c1cccc(F)c1,active: 70.8%
23,COc1ccc(S(=O)(=O)N2CCC(C(=O)NC3CC(C)(C)NC(C)(C)C3)CC2)cc1,inconclusive: 21%
24,CC[C@@]1(C(=O)OC)N[C@H](CN(C)C(=O)C2CCCCC2)[C@@H]2C(=O)N(Cc3ccccc3)C(=O)[C@@H]21,inconclusive: 27.9%
25,Cn1c(-c2ccccc2)c(C(=O)CCl)c2ccccc21,inactive: -4.72%

row,Compound,CPE inhibition
1,C[C@H](CO)N1C[C@H](C)[C@H](CN(C)Cc2ccccc2)OCc2ccccc2-c2c(n(C)c3ccccc23)C1=O,inconclusive: 21.9%
2,O=C(NC1CCCC1)C1c2ccccc2OCC(=O)N1CCc1c[nH]c2ccccc12 (stereo not drawn),inconclusive: 55.8%
3,O=C(NCc1cccnc1)c1ccccc1CCc1ccccc1,inconclusive: 33.5%
4,COc1ccc(CN(C)C[C@H]2Oc3ccc(NS(=O)(=O)c4ccc(F)cc4)cc3C(=O)N([C@H](C)CO)C[C@@H]2C)cc1,inconclusive: 32.9%
5,O=C(Cc1ccc(S(=O)(=O)N2CCOCC2)s1)N1CCN(c2ccc(C(F)(F)F)cc2[N+](=O)[O-])CC1,inconclusive: 20.9%
6,CCCCn1c(N)c(N(CC(C)C)C(=O)CSCC(=O)Nc2ccc(C)cc2)c(=O)[nH]c1=O,inconclusive: 71.3%
7,COC(=O)c1ccccc1NC(=O)CSc1nc(N)cc(N)n1,inconclusive: 21.3%
8,O=C(c1cccc(S(=O)(=O)N2CCOCC2)c1)N1CCC(Cc2ccccc2)CC1,inconclusive: 39.2%
9,COc1ccc(NC(=O)Nc2ccc3c(c2)CC(=O)N([C@@H](C)CO)C[C@H](C)[C@H](CN(C)S(=O)(=O)c2c(C)noc2C)O3)cc1,inactive: -15.8%
10,C[C@@H]1CN([C@H](C)CO)C(=O)Cc2cc(NC(=O)Nc3ccccc3)ccc2O[C@@H]1CN(C)Cc1ccc(C(=O)O)cc1,inconclusive: 90.5%
11,CCCNC(=O)NC[C@@H]1[C@@H](c2ccc(C3=CCCC3)cc2)[C@@H](CO)N1C(C)=O,inconclusive: 23.4%
12,Cc1ccc(S(=O)(=O)Nc2ccc3c(c2)C(=O)N([C@@H](C)CO)C[C@H](C)[C@H](CN(C)C(=O)NC(C)C)OCCCC[C@H](C)O3)cc1,inconclusive: 21.7%
13,COc1ccc(C(=O)NC(CC(C)C)C(=O)O)cc1 (stereo not drawn),inconclusive: 38.2%
14,COc1cc(OC)c(OC)cc1CNCc1ccc2c(c1)OCO2,inconclusive: 53.4%
15,CS(=O)(=O)Nc1ccc2c(c1)[C@@H]1C[C@@H](CC(=O)NC3CCCCC3)O[C@H](CO)[C@@H]1O2,inactive: -5.49%
16,O=C(C[C@H]1C[C@H]2c3cc(NC(=O)Nc4ccccc4F)ccc3O[C@H]2[C@H](CO)O1)NCc1ccc2c(c1)OCO2,inactive: -0.013%
17,COc1cc(/C=N/Nc2cc(C)nc(NS(=O)(=O)c3ccccc3)n2)ccc1O,inactive: 7.17%
18,CCCN1[C@H](C(=O)N[C@H](C)c2ccccc2)[C@@H](CO)[C@@H]2Cn3c(ccc(-c4ccc(F)cc4)c3=O)[C@@H]21,inconclusive: 79.3%
19,Clc1cccc(OCCOCCN2CCNCC2)c1Cl,inconclusive: 60%
20,COc1ccccc1CNC(=O)C[C@H]1C[C@H]2c3cc(NC(=O)c4cccnc4)ccc3O[C@H]2[C@H](CO)O1,inactive: 11.8%
21,CC(C)NC(=O)N1CCCCN2[C@H](CO)[C@@H](c3ccc(Br)cc3)[C@H]2C1,inactive: -4.94%
22,O=C(Cc1ccccc1)NC(=S)Nc1ccc(OC(F)F)cc1,inconclusive: 24.7%
23,Cc1ccc(S(=O)(=O)N2C[C@H]3[C@H]4C(=O)N(c5ccccc5)C(=O)[C@H]4C[C@H](OC(=O)NCc4ccccc4)[C@@]3(O)C2)cc1,inactive: 15.8%

# From PubChem BioAssay AID651640 (Broad Institute, 2012)
